Data reported in PubChem BioAssay AID1508600 (Functional Genomics Laboratory (NCATS/FGL), 2020).
Screen size: about 53,000 sequences; about 3,700 (7%) were called active.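 The calls were made as follows: active = gene knockdowns whose robust z-score for IL-1 alpha signal is at least 2 or at most -2, so actives lie on both sides; inactive = the rest.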 The list shows a part of the results.

Experiment: Components of the Cytosolic LPS Sensing Pathway: Gene Identification via Genome-wide siRNA Screen;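 also: robust z of the log signal after scaling to non-targeting control siRNA wells of the plate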
Conditions: RAW264.7 macrophages, IL-1a HTRF, actives lie on both sides, screened at 100 nM (by protocol), cells primed 5 h with Pam3CSK4 first
Outline: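 IL-1a HTRF of supernatants after 24 hour LipidA transfection of Pam3CSK4-primed (5 hours) RAW264.7 cells, 48h post-siRNA transfection (100 nM). Scores: percent of plate negative-control median, then log-based robust z-score.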

z-score, active:
GGAAACAGGUCUGUCCCAATT against Ankle1 -2.22
GGCAGGUUUAACUUUAAUGTT against Cacna1e 3.59

z-score, inactive:
GGGACUGAACCCUCUCAAATT against Lsp1 0.915
GGCUAGAUGACAACCGCAUTT against Flrt1 1.13
GCAAGAAACAUUAGCGAAUTT against Dapk1 1.01
GGAUUCUUGAGCAGAUAGCTT against Gbp3 0.187
GGGCUUUAAUACUGAGAAGTT against Arl4d 1.21
GGACGGCAAGUCUUAUGUGTT against Rp1 -0.0566
GGUUGCUCAAGAAACAGACTT against Rad50 -1.18
GGAAGAAAGAGUGUAUCAATT against Idi2 0.487
GGAAACUGGUAACUGAUGATT against Acp1 -0.822
GGAAGGACACACAUCCACUTT against Trpt1 -0.584
CGAGAGUCAGCUAUUAAUGTT against Stoml2 -1.16
CCCUCAUAACUAAUGCUGUTT against Pip5kl1 -0.276
GGUCUGAUCAAGGCUGCCATT against Trpm1 -0.588
GAAGCUUUGUGAUGGAUUATT against Ccl4 1.41
GCUGCACUAUAGCAUCUGUTT against Fam135a 0.168
GGAGAUUCAGAAGCACAACTT against Fads2 1.57
GGGACAUUGCAUUGUGAUCTT against Hspa1a 0.757
GGCAAAAAUACGUUCUAUATT against Slc35a3 0.873
CCAAACACAUUUUAUUCCATT against Slamf7 0.74
GGCCAUAAUCAAUCCUACCTT against Macroh2a1 0.29
GGAAGAGAUAGCUUGAUUUTT against Xrcc6 -1.36
GGGUUCCCUGAAAUGUUAGTT against Atic -0.754
GGCCUUACAGAGGAAUAUCTT against Gid4 -1.18
GCAUGGAUAGAUAAUUCAATT against Atp5a1 1.28
GGCAAUGUCUUCUCCAAUATT against Dedd -0.652
GGUCCUAGUUAAUUUCACUTT against Ipmk -0.121
CUCAAUGGGAGCCACUUUUTT against Fam169b -1.45
GGACAUAGAGAAAACAUCUTT against 4933430I17Rik -0.0638
GAAGCUCAACAACCAGUAUTT against Cited2 -0.0282
GGGCUAAAGAAACAAUCCCTT against Ccr10 0.743
GGGUGUUUUUAAGUGUCCCTT against Zfp574 0.475
GCCCAGUGUAUAUGCUACUTT against Pirb 0.403
GGUCAACCCAUUGUAUAAGTT against Socs5 -0.263
GGAGGGUCUCUAAUCUAUGTT against Slc38a4 1.21
CGAGCCUAGAAAGAGUUGATT against Lrrn4 0.646
GGCUGUGGAUUAAAUUAUCTT against Prkd3 -0.0472
GCGGUGAACUACCAUUACCTT against Thnsl2 1.49
GCCACUGUUUGAUCUGAAATT against Fhod1 0.943
GGAUCUGAAAGAUUAGAUUTT against Slc7a15 -0.292
GCUUCACAUGAAGCAACCUTT against Fam149b -0.102
GGAUGUUCUCAAACUACAATT against Kdm1b 0.702
GGUUAUUACCCAGUUCACGTT against Pramel1 -0.668
CCGAGCGAGACAAAUGGAGTT against Ing2 0.308
CCAAGAUGUGAAAUUCACCTT against Efnb2 0.414
GCAUAUGGCACCACAUUGUTT against Psg25 0.0646
CCUUAGAAACACUCUUAUUTT against Lrrc66 -0.337
GGUGGAUUUUGAAACUAUUTT against Pcdhb17 1.11
GGGUGCCCUUUGUCAUGUATT against Rapgef3 -1.16
GGCCAAAGGCAUCAGGCAUTT against Gsto2 -1.7
GGUGGUACUUACUCAAAAUTT against Fgg 1.05
GGGAUACCAUCUUUAUGGCTT against Vwa3b -0.041
GGAGGUAUUGGUUUCAUCCTT against Impdh2 1.09
GCCACCUGGUUAAAUUAAATT against Ceacam9 0.658
GCUAGUUACAAGCAAGCAGTT against Zfp763 -0.636
GGAAAACCAUACCAAAAUGTT against Hmox2 0.248
CGAGAACAACACUUGGAAUTT against Ubxn4 -0.665
GGCAUGCUGAUGGAGUUUUTT against Vip 0.953
GCCACCAAAUUUAUGGUAUTT against Rnf185 -0.58
CCAAUCUACUCCUAAGAACTT against Vmn1r84 -0.142
GCCGACUUUAAUGACUGCUTT against Cmtm4 1.71
CGUACAAUAAUUUGUCUACTT against Slc9a6 1.4
GGAGAUGCAAAGCUACUCUTT against Epha8 -0.604
GGGAGGACAUCCAGACAAUTT against Fam13b -0.305
AUAAAUAGGUAACAGAACCTT against Olfr121 -0.786
GGAUCUAUAGAAUAGCUCUTT against Rbm39 -1.37
GGCUUUUUCUACAUGCGCCTT against Olfr1104 -0.236

2 records picked at random from the list so far, as already listed:
z-score, inactive:
GGCCAAAGGCAUCAGGCAUTT against Gsto2 -1.7
GGCCAUAAUCAAUCCUACCTT against Macroh2a1 0.29

For convenience, part of the list above:
z-score, inactive:
CCCUCAUAACUAAUGCUGUTT against Pip5kl1 -0.276
GGUCUGAUCAAGGCUGCCATT against Trpm1 -0.588
GAAGCUUUGUGAUGGAUUATT against Ccl4 1.41
